Test results taken from paper doi:10.1101/2022.11.02.514969.

T1: FANCA (transfected 293T cells) (UniProt O15360)
T1 sequence: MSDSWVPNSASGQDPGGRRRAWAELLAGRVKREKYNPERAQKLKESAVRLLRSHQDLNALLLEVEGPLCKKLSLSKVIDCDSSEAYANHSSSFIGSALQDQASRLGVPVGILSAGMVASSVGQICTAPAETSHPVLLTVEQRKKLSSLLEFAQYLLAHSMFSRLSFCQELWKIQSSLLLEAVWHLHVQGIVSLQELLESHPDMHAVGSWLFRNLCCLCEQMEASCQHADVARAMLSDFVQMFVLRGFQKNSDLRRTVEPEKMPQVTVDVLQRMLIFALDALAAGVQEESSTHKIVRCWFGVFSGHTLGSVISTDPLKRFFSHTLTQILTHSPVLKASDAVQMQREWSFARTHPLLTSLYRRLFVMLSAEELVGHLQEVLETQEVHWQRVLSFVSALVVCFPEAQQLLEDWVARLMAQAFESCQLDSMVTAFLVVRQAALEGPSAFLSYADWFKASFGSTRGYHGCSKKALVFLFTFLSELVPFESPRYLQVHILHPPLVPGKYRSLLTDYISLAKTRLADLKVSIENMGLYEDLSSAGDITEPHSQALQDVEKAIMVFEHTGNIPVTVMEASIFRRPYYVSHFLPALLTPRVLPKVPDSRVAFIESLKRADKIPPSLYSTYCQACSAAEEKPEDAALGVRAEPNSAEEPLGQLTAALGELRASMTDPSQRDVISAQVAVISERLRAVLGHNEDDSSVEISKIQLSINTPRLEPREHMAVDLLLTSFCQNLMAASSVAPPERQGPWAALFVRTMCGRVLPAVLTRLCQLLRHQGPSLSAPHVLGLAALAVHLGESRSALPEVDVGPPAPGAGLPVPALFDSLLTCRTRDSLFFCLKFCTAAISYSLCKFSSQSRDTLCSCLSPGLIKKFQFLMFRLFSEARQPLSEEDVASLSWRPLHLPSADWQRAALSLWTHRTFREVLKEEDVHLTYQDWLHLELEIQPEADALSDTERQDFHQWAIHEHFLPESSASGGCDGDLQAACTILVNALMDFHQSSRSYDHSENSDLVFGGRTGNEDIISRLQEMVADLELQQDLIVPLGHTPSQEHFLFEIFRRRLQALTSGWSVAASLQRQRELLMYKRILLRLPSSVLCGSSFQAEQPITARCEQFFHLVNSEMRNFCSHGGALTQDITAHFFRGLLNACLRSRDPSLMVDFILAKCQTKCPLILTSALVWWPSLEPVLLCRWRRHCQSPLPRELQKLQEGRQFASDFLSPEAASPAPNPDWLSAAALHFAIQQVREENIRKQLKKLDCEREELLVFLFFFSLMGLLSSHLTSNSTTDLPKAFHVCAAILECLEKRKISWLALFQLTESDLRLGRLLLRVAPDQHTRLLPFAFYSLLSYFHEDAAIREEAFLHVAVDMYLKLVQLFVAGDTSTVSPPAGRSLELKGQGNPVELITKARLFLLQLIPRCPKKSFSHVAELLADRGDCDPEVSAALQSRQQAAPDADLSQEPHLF

B1: FANCA (endogenous) (protein, UniProt O15360 1-1455)
chain: T1 sequence
B2: FANCL (protein, UniProt Q9NW38 1-375)
chain: MAVTEASLLRQCPLLLPQNRSKTVYEGFISAQGRDFHLRIVLPEDLQLKNARLLCSWQLRTILSGYHRIVQQRMQHSPDLMSFMMELKMLLEVALKNRQELYALPPPPQFYSSLIEEIGTLGWDKLVYADTCFSTIKLKAEDASGREHLITLKLKAKYPAESPDYFVDFPVPFCASWTPQSSLISIYSQFLAAIESLKAFWDVMDEIDEKTWVLEPEKPPRSATARRIALGNNVSINIEVDPRHPTMLPECFFLGADHVVKPLGIKLSRNIHLWDPENSVLQNLKDVLEIDFPARAILEKSDFTMDCGICYAYQLDGTIPDQVCDNSQCGQPFHQICLYEWLRGLLTSRQSFNIIFGECPYCSKPITLKMSGRKH

Tests used:
[1] = biological target: T1, FANCA (transfected 293T cells); test: co-IP
[2] = biological target: HA-tagged wt IRIS (hairpin-resistant, in HME cells) (human); test: co-IP

| Molecule | binding [1] | binding [2] |
| --- | --- | --- |
| wt IRIS (transfected 293T cells) (human) | binds | – |
| B1 | – | binds |
| B2 | – | binds |

Results are given in words; binding and its absence hold for the method and conditions named. In cells and extracts the contact can be indirect. A result given as binding can be weak or reduced; the word gives no strength.
